Source: US4748116A, “Peptide substrates for determination of protease activity” (KabiVitrum AB, priority 1980, dated 1988)

Test: Test 2: chemiluminescence appliance response of isoluminol in presence of intact substrate

In the case of `Nc1ccc2c(=O)[nH][nH]c(=O)c2c1` [Isoluminol], the “relation of appliance response to amount of isoluminol” value (10^-5 -10^-10 M isoluminol plus 10^-4 or 10^-5 M substrate XXI) is reported as “rectilinear proportion” and the “appliance response of isoluminol relative to that of the substrate at the corresponding concentration” value (substrate XXI, NaOH/hemine/H2O2 oxidation) is reported as 2,500 times.
